These are yes or no findings as the source states them, for the method shown. Binding can be weak; no strength is given. For some assays here: Tags and fused reporters may be left off the sequences shown. For some assays here: In cells and extracts the contact can be indirect.
Assays:
[1] = target: T1, human PIRH2 (pcDNA3-hPIRH2) (human) (UniProt Q96PM5); experiment: co-IP; HEK293T cells transfected with PIRH2 and c-MYC plasmids, lysed after 48 h (50 mM Tris-HCl pH 7.4, 150 mM NaCl, 1% Triton-X); IP with anti-PIRH2 or anti-c-MYC antibody, immunoblot
T1 sequence: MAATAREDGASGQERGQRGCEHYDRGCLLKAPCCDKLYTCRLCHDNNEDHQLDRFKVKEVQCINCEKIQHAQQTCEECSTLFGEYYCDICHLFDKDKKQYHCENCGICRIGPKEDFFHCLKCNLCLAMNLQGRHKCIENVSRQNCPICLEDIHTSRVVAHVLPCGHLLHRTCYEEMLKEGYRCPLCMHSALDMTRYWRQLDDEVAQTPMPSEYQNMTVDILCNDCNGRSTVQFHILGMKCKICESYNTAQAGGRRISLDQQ

Protein sequences, listed by entry. Tags and fused reporters are not part of them. Lines headed by an entry give the natural chain unless they say otherwise; changes in a name come on top.
UniProt P01106: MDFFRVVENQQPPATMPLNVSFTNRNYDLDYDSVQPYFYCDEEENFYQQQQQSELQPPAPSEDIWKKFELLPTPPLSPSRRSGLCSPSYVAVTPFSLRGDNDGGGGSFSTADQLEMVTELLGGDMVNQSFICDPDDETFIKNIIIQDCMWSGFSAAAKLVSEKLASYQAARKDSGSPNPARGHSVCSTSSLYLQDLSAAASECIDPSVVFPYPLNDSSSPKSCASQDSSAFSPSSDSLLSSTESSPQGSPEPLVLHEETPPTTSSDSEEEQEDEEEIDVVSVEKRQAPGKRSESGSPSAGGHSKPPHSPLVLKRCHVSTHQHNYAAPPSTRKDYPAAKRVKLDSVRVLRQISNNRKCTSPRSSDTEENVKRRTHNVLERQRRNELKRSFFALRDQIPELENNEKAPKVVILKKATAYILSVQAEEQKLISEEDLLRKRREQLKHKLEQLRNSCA

[2] = target: T2, GST-PIRH2 (aa 138–261) (human) (UniProt Q96PM5); experiment: pull-down; GST pull-down: purified GST-PIRH2 (full length or fragments) incubated with His-c-MYC fusion proteins, 1:2 molar ratio, 4°C overnight, PBS pH 7.4, 100 mM NaCl, 5 mM βME; glutathione-Sepharose, eluted with 30 mM reduced glutathione; SDS-PAGE and Coomassie staining; both purified
T2 sequence: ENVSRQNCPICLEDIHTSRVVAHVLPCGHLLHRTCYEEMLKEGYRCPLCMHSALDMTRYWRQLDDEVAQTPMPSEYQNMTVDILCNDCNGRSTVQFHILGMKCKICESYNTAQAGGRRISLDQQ

[3] = target: T3, GST-PIRH2 N-terminus (aa 1–137) (human) (UniProt Q96PM5); experiment: as above
T3 sequence: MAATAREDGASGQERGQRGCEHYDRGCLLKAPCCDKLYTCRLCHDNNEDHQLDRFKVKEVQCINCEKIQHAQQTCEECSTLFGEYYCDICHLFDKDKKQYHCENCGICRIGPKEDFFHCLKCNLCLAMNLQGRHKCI

[4] = target: human c-MYC (pcDNA3-c-MYC) (human) (UniProt P01106); experiment: co-IP; HEK293T cells transfected with PIRH2 and c-MYC plasmids, lysed after 48 h (50 mM Tris-HCl pH 7.4, 150 mM NaCl, 1% Triton-X); IP with anti-PIRH2 or anti-c-MYC antibody, immunoblot

human c-MYC (pcDNA3-c-MYC) (from UniProt P01106)
binding [1]: binds

c-MYCboxII (120–160 aa) (human) (domain or fragment)
binding [2]: binds

His-c-MYC (353–434 aa) (human) (domain or fragment)
binding [3]: binds

His-c-MYC boxI (1–69 aa) (human) (domain or fragment)
binding [2]: no binding

B1: human PIRH2 (pcDNA3-hPIRH2) (protein, UniProt Q96PM5 1-261)
chain: T1 sequence
binding [4]: binds

— PMC3219591
